Experimental findings from the supplement of paper PMC7411640 are described below.

The assay concerns MDA-MB-468. Kind of assay: phospho-S6 immunofluorescence (DAPI-normalised), per-plate z-score; higher = higher phospho-S6 signal (less pathway suppression). To be noted: 24 h. The protocol: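 GPCR-targeted compound library (MedChemExpress HY-L006) tested on MDA-MB-468 PTEN-null TNBC cells in 384-well plates at 0.1, 1 or 10 uM, combined with vehicle, GDC0941 450 nM or lapatinib 1 uM, for 24 h. Phospho-S6 (S240/244) immunofluorescence normalised to DAPI and expressed as a per-plate z-score; values are the mean of biological triplicates.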

[1] abbreviates: compound 0.1 µM, co-treatment: GDC0941 450 nM.
Where [2] appears, read: compound 0.1 µM, co-treatment: lapatinib 1 uM.
The mark [3] stands for this setting: compound 0.1 µM, co-treatment: vehicle.
[4] abbreviates: compound 1 µM, co-treatment: GDC0941 450 nM.
Where [5] appears, read: compound 1 µM, co-treatment: lapatinib 1 uM.
Where [6] appears, read: compound 1 µM, co-treatment: vehicle.
[7] abbreviates: compound 10 µM, co-treatment: GDC0941 450 nM.
Where [8] appears, read: compound 10 µM, co-treatment: lapatinib 1 uM.
The mark [9] stands for this setting: compound 10 µM, co-treatment: vehicle.

Structures can show the parent of a compound that is named as a salt. The list shows a part of the results. Single values are uncertain here, since repeats match poorly.

As to `CCC(=O)OCC(=O)[C@@]1(OC(=O)CC)[C@@H](C)C[C@H]2[C@@H]3CCC4=CC(=O)C=C[C@]4(C)[C@@]3(F)[C@@H](O)C[C@@]21C` [Betamethasone dipropionate], the “phospho-S6 immunofluorescence (z-score)” value under setting [1] stood at 0; the “phospho-S6 immunofluorescence (z-score)” value under setting [2] was 1.29; the “phospho-S6 immunofluorescence (z-score)” value under setting [3] stood at 2.44; the “phospho-S6 immunofluorescence (z-score)” value under setting [4] is -0.76; the “phospho-S6 immunofluorescence (z-score)” value under setting [5] stood at 1.54; the “phospho-S6 immunofluorescence (z-score)” value under setting [6] came out at 2.21. Moreover, the “phospho-S6 immunofluorescence (z-score)” value runs as follows: under setting [7], -0.51; under setting [8], -0.45; under setting [9], 0.82.
For the compound `C=CCN1CCCC1CNC(=O)c1cc(S(N)(=O)=O)cc(OC)c1OC` (configuration not stated) [Veralipride], the “phospho-S6 immunofluorescence (z-score)” value by setting is: under setting [1], -0.03; under setting [2], 0.83; under setting [3], -0.01; under setting [4], -0.48; under setting [5], 1.32; under setting [6], -0.6.
With `CC(C)NCC(O)COc1cccc2ccccc12` (configuration not stated) [Propranolol (hydrochloride)], the “phospho-S6 immunofluorescence (z-score)” value was -1.17 under setting [1]; -0.78 under setting [2]; -0.6 under setting [3]; -1.42 under setting [4]; 1.12 under setting [5]; 0.09 under setting [6]. Moreover, the “phospho-S6 immunofluorescence (z-score)” value is 0.53 under setting [7], 0.73 under setting [8] and 0.21 under setting [9].
Regarding `CN(C)CCOC(c1ccccc1)c1ccccc1.Cn1c(=O)c2[nH]c(Cl)nc2n(C)c1=O` [Dimenhydrinate], the “phospho-S6 immunofluorescence (z-score)” value is -0.62 under setting [1]; 0.9 under setting [2]; 0.48 under setting [3]; -0.44 under setting [4]; -1.06 under setting [5]; -2.22 under setting [6]. The “phospho-S6 immunofluorescence (z-score)” value under setting [7] was -1.22, the “phospho-S6 immunofluorescence (z-score)” value under setting [8] came to 0.01 and the “phospho-S6 immunofluorescence (z-score)” value under setting [9] is -0.02.
Turning to `O=C(O[C@@H]1C[C@@H]2C[C@H]3C[C@H](C1)N2CC3=O)c1c[nH]c2ccccc12` [Dolasetron], the “phospho-S6 immunofluorescence (z-score)” value was 1.38 under setting [1]; 0.67 under setting [2]; -0.48 under setting [3]; -0.26 under setting [4]; -0.12 under setting [5]; -0.71 under setting [6]. Moreover, the “phospho-S6 immunofluorescence (z-score)” value runs as follows: under setting [7], -0.34; under setting [8], -0.11; under setting [9], -0.46.
